{"source": "PubChem BioAssay AID493246 (Drosophila RNAi Screening Center, 2011)", "test": "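Genes fly cells need to grow and stay alive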 (primary screen)", "cell system": "Drosophila Kc and S2R+ cells", "knock-down reagent": "long dsRNA against Drosophila genes", "measured": "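Cell number per well after knock-down, printed as raw plate values; calls were based on per-plate z-scores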", "direction": "Kc cell number and S2R+ cell number: higher = more cells remaining", "hit rule": "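Active when the per-plate z-score of cell number is 3 or more in the direction of fewer cells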", "note": "The screen tested about 21,000 reagents; shown is a random part of those with a known target gene and a result. Over the whole deposit, 429 (2%) are marked active. 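Values are raw and not normalised between plates; calls rest on per-plate z-scores that were not deposited.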 Reagents against one gene are numbered here. The record does not give: the amount of reagent, the time to read-out."}
{"gene": "CG32409 (GeneID 318016)", "reagent": 1, "Kc cell number, rep 1": 1.45e6, "Kc cell number, rep 2": 1.56e6, "S2R+ cell number, rep 1": 9.80e5, "S2R+ cell number, rep 2": 1.10e6, "call": "inactive"}
{"gene": "CG31781 (retired record) (GeneID 35023)", "reagent": 1, "Kc cell number, rep 1": 1.54e6, "Kc cell number, rep 2": 1.68e6, "S2R+ cell number, rep 1": 1.39e6, "S2R+ cell number, rep 2": 1.46e6, "call": "inactive"}
{"gene": "CG31781 (retired record) (GeneID 35023)", "reagent": 2, "Kc cell number, rep 1": 1.81e6, "Kc cell number, rep 2": 1.80e6, "S2R+ cell number, rep 1": 1.42e6, "S2R+ cell number, rep 2": 1.52e6, "call": "inactive"}
{"gene": "CG13438 (GeneID 37348)", "reagent": 1, "Kc cell number, rep 1": 1.42e6, "Kc cell number, rep 2": 1.34e6, "S2R+ cell number, rep 1": 9.90e5, "S2R+ cell number, rep 2": 1.29e6, "call": "inactive"}
{"gene": "RhoGEF3 (retired record) (GeneID 38051)", "reagent": 1, "Kc cell number, rep 1": 1.62e6, "Kc cell number, rep 2": 1.78e6, "S2R+ cell number, rep 1": 1.10e6, "S2R+ cell number, rep 2": 1.15e6, "call": "inactive"}
{"gene": "RhoGEF3 (retired record) (GeneID 38051)", "reagent": 2, "Kc cell number, rep 1": 1.36e6, "Kc cell number, rep 2": 1.13e6, "S2R+ cell number, rep 1": 1.05e6, "S2R+ cell number, rep 2": 1.27e6, "call": "inactive"}
{"gene": "IM33 (GeneID 33592)", "reagent": 1, "Kc cell number, rep 1": 1.57e6, "Kc cell number, rep 2": 1.41e6, "S2R+ cell number, rep 1": 1.15e6, "S2R+ cell number, rep 2": 1.34e6, "call": "inactive"}
{"gene": "naz (GeneID 42204)", "reagent": 1, "Kc cell number, rep 1": 1.22e6, "Kc cell number, rep 2": 1.13e6, "S2R+ cell number, rep 1": 1.10e6, "S2R+ cell number, rep 2": 1.22e6, "call": "inactive"}
{"gene": "naz (GeneID 42204)", "reagent": 2, "Kc cell number, rep 1": 1.29e6, "Kc cell number, rep 2": 1.26e6, "S2R+ cell number, rep 1": 1.14e6, "S2R+ cell number, rep 2": 1.25e6, "call": "inactive"}
{"gene": "ND-PDSW (GeneID 44228)", "reagent": 1, "Kc cell number, rep 1": 1.25e6, "Kc cell number, rep 2": 1.29e6, "S2R+ cell number, rep 1": 7.63e5, "S2R+ cell number, rep 2": 7.95e5, "call": "inactive"}
{"gene": "CG14100 (GeneID 40132)", "reagent": 1, "Kc cell number, rep 1": 1.24e6, "Kc cell number, rep 2": 1.26e6, "S2R+ cell number, rep 1": 1.24e6, "S2R+ cell number, rep 2": 1.34e6, "call": "inactive"}
{"gene": "CG15021 (GeneID 38546)", "reagent": 1, "Kc cell number, rep 1": 1.72e6, "Kc cell number, rep 2": 1.61e6, "S2R+ cell number, rep 1": 1.14e6, "S2R+ cell number, rep 2": 1.28e6, "call": "inactive"}
{"gene": "CG15550 (GeneID 43666)", "reagent": 1, "Kc cell number, rep 1": 1.46e6, "Kc cell number, rep 2": 1.47e6, "S2R+ cell number, rep 1": 1.03e6, "S2R+ cell number, rep 2": 1.17e6, "call": "inactive"}
{"gene": "ath (GeneID 34357)", "reagent": 1, "Kc cell number, rep 1": 1.69e6, "Kc cell number, rep 2": 1.75e6, "S2R+ cell number, rep 1": 1.16e6, "S2R+ cell number, rep 2": 1.31e6, "call": "inactive"}
{"gene": "CG5335 (GeneID 37140)", "reagent": 1, "Kc cell number, rep 1": 1.37e6, "Kc cell number, rep 2": 1.47e6, "S2R+ cell number, rep 1": 1.23e6, "S2R+ cell number, rep 2": 1.26e6, "call": "inactive"}
{"gene": "CG10700 (GeneID 35183)", "reagent": 1, "Kc cell number, rep 1": 1.50e6, "Kc cell number, rep 2": 1.69e6, "S2R+ cell number, rep 1": 1.37e6, "S2R+ cell number, rep 2": 2.90e5, "call": "inactive"}
{"gene": "CG17377 (GeneID 33954)", "reagent": 1, "Kc cell number, rep 1": 1.51e6, "Kc cell number, rep 2": 1.50e6, "S2R+ cell number, rep 1": 1.07e6, "S2R+ cell number, rep 2": 1.20e6, "call": "inactive"}
{"gene": "CG17377 (GeneID 33954)", "reagent": 2, "Kc cell number, rep 1": 1.27e6, "Kc cell number, rep 2": 1.34e6, "S2R+ cell number, rep 1": 6.57e5, "S2R+ cell number, rep 2": 8.62e5, "call": "inactive"}
{"gene": "CG9294 (GeneID 37491)", "reagent": 1, "Kc cell number, rep 1": 1.47e6, "Kc cell number, rep 2": 1.55e6, "S2R+ cell number, rep 1": 1.31e6, "S2R+ cell number, rep 2": 3.44e5, "call": "inactive"}
{"gene": "tum (GeneID 36538)", "reagent": 1, "Kc cell number, rep 1": 1.66e6, "Kc cell number, rep 2": 1.67e6, "S2R+ cell number, rep 1": 1.19e6, "S2R+ cell number, rep 2": 1.40e6, "call": "inactive"}
{"gene": "Swim (GeneID 37537)", "reagent": 1, "Kc cell number, rep 1": 1.29e6, "Kc cell number, rep 2": 1.37e6, "S2R+ cell number, rep 1": 1.09e6, "S2R+ cell number, rep 2": 1.13e6, "call": "inactive"}
{"gene": "ncm (GeneID 35099)", "reagent": 1, "Kc cell number, rep 1": 1.15e6, "Kc cell number, rep 2": 1.23e6, "S2R+ cell number, rep 1": 1.02e6, "S2R+ cell number, rep 2": 1.02e6, "call": "inactive"}
{"gene": "CG31933 (GeneID 326176)", "reagent": 1, "Kc cell number, rep 1": 1.58e6, "Kc cell number, rep 2": 1.54e6, "S2R+ cell number, rep 1": 1.14e6, "S2R+ cell number, rep 2": 1.20e6, "call": "inactive"}
{"gene": "CG14506 (GeneID 43467)", "reagent": 1, "Kc cell number, rep 1": 1.46e6, "Kc cell number, rep 2": 1.44e6, "S2R+ cell number, rep 1": 1.01e6, "S2R+ cell number, rep 2": 1.14e6, "call": "inactive"}
{"gene": "mars (GeneID 36498)", "reagent": 1, "Kc cell number, rep 1": 1.39e6, "Kc cell number, rep 2": 1.46e6, "S2R+ cell number, rep 1": 9.67e5, "S2R+ cell number, rep 2": 1.10e6, "call": "inactive"}
{"gene": "GABPI (GeneID 33516)", "reagent": 1, "Kc cell number, rep 1": 1.38e6, "Kc cell number, rep 2": 1.42e6, "S2R+ cell number, rep 1": 5.70e5, "S2R+ cell number, rep 2": 7.10e5, "call": "inactive"}
{"gene": "CG10866 (GeneID 38461)", "reagent": 1, "Kc cell number, rep 1": 1.35e6, "Kc cell number, rep 2": 1.23e6, "S2R+ cell number, rep 1": 1.03e6, "S2R+ cell number, rep 2": 1.18e6, "call": "inactive"}
